Record: PubChem BioAssay AID1259308 (NCATS, 2017)

Test: 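Genes whose loss raises luciferase production in HEK293 cells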 (primary screen)
Cells: human HEK293 embryonic kidney cells stably expressing firefly luciferase (HEK-CMV-Luc2-Hygro)
Knock-down reagent: single siRNA against human genes, 0.8 pmol siRNA per well
Time to read-out: 72 h
Detection: 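Luciferase light (ONE-Glo) measured on one replicate plate set and viability (CellTiter-Glo) on the other, scaled to a negative control siRNA, with robust z-scores and luciferase per cell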
Reading the numbers: total luciferase, z-score and total luciferase, % of control: higher = more reporter protein produced; luciferase per cell, z-score: higher = more reporter output per viable cell; viable cells, % of control: higher = more viable cells
Hit rule: 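An siRNA counts as active if its total luciferase robust z-score exceeds 3; genes with two or more such siRNAs out of three were retested with fresh siRNAs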
Calls: active = raised luciferase; inactive = no rise
The whole screen tested about 59,000 reagents; shown is a random part of them. About 1,510 of them (2.6%) count as active. 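Calls use total luciferase alone and ignore viability, so some active siRNAs may act by altering cell number.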 The numbers tell different reagents against one gene apart.

no.	Gene	reagent no.	total luciferase, z-score	total luciferase, % of control	luciferase per cell, z-score	viable cells, % of control	Outcome
1	ZNF641	1	-0.527	71.4	0.549	69.1	inactive
2	ZNF641	2	-0.85	65	0.111	70.5	inactive
3	ZNF641	3	-1.33	55.4	-1.35	88.3	inactive
4	ZBED3	1	-0.611	69.7	-0.296	84.3	inactive
5	ZBED3	2	-1.67	48.6	-0.661	64.6	inactive
6	ZBED3	3	0.222	86.3	0.675	80.7	inactive
7	BECN1	1	-0.667	68.6	-0.155	79.9	inactive
8	BECN1	2	0.026	82.4	0.0153	91.7	inactive
9	BECN1	3	-0.381	74.3	0.587	71.1	inactive
10	DCUN1D1	1	-0.382	74.3	-0.129	85.9	inactive
11	DCUN1D1	2	0.238	86.6	0.366	87.9	inactive
12	DCUN1D1	3	0.687	95.6	0.284	99.1	inactive
13	HOXB5	1	0.0879	83.6	-0.209	98.7	inactive
14	HOXB5	2	0.355	88.9	-0.0942	102	inactive
15	HOXB5	3	0.903	99.9	2.05	65	inactive
16	CATSPER4	1	-1.97	42.7	-2.17	84.5	inactive
17	CATSPER4	2	-0.218	77.6	-0.0997	89	inactive
18	CATSPER4	3	0.349	88.8	-0.326	108	inactive
19	TOMM20L	1	0.799	97.8	1.81	67.9	inactive
20	TOMM20L	2	4.39	169	2.33	102	active
21	TOMM20L	3	0.571	93.2	0.476	91.9	inactive
22	SMIM10L2A	1	0.543	92.7	-0.32	113	inactive
23	SMIM10L2A	2	2.65	135	1.69	96.3	inactive
24	SMIM10L2A	3	4.16	165	1.68	118	active
25	SLC27A1	1	1.17	105	1.03	89.7	inactive
26	SLC27A1	2	1.19	106	0.488	104	inactive
27	SLC27A1	3	0.533	92.5	0.203	98	inactive
28	PPP1R8	1	-0.116	79.6	-0.0278	89.6	inactive
29	PPP1R8	2	0.00706	82	0.18	87.4	inactive
30	PPP1R8	3	0.818	98.2	0.951	85.4	inactive
31	MYOT	1	-1.25	57.1	-0.162	66.6	inactive
32	MYOT	2	-2.3	36.1	-1.42	58.5	inactive
33	MYOT	3	0.375	89.3	0.704	82.9	inactive
34	MXI1	1	-1.4	54.1	-1.09	80.5	inactive
35	MXI1	2	-2	42.2	-2.59	93.3	inactive
36	MXI1	3	-0.235	77.2	0.584	74	inactive

Entries listed so far whose target name starts with D or d (3):
Gene	reagent no.	total luciferase, z-score	total luciferase, % of control	luciferase per cell, z-score	viable cells, % of control	Outcome
DCUN1D1	1	-0.382	74.3	-0.129	85.9	inactive
DCUN1D1	2	0.238	86.6	0.366	87.9	inactive
DCUN1D1	3	0.687	95.6	0.284	99.1	inactive

The listing continues:
no.	Gene	reagent no.	total luciferase, z-score	total luciferase, % of control	luciferase per cell, z-score	viable cells, % of control	Outcome
37	RAP1A	1	0.319	88.2	-0.0819	101	inactive
38	RAP1A	2	-0.635	69.2	-0.715	93.4	inactive
39	RAP1A	3	-0.12	79.5	-0.577	103	inactive
40	CTSL	1	2.37	129	0.694	120	inactive
41	CTSL	2	0.541	92.7	0.287	96	inactive
42	CTSL	3	-0.685	68.3	-1.05	101	inactive
43	TRPC1	1	1.34	109	0.614	103	inactive
44	TRPC1	2	0.235	86.6	-0.129	100	inactive
45	TRPC1	3	1.73	116	0.587	111	inactive
46	LEFTY1	1	-1.36	54.8	-1.23	84.5	inactive
47	LEFTY1	2	-1.43	53.4	-1.62	91.4	inactive
48	LEFTY1	3	2.63	134	1.77	94.2	inactive
49	TRNT1	1	0.0885	83.6	0.625	79.3	inactive
50	TRNT1	2	0.665	95.1	1.96	63.4	inactive
51	TRNT1	3	1.97	121	1.79	84.3	inactive
52	CHI3L2	1	-0.176	78.4	-0.635	104	inactive
53	CHI3L2	2	1.08	103	0.45	103	inactive
54	CHI3L2	3	0.946	101	0.443	100	inactive
55	CEACAM1	1	-0.385	74.2	-0.6	97.2	inactive
56	CEACAM1	2	0.575	93.3	1.32	73.6	inactive
57	CEACAM1	3	-0.11	79.7	1.24	64.2	inactive
